Experimental findings from paper PMC5353636 are described below.

By UniProt entry, the sequences of proteins in these tests, tags left out.
UniProt Q38898: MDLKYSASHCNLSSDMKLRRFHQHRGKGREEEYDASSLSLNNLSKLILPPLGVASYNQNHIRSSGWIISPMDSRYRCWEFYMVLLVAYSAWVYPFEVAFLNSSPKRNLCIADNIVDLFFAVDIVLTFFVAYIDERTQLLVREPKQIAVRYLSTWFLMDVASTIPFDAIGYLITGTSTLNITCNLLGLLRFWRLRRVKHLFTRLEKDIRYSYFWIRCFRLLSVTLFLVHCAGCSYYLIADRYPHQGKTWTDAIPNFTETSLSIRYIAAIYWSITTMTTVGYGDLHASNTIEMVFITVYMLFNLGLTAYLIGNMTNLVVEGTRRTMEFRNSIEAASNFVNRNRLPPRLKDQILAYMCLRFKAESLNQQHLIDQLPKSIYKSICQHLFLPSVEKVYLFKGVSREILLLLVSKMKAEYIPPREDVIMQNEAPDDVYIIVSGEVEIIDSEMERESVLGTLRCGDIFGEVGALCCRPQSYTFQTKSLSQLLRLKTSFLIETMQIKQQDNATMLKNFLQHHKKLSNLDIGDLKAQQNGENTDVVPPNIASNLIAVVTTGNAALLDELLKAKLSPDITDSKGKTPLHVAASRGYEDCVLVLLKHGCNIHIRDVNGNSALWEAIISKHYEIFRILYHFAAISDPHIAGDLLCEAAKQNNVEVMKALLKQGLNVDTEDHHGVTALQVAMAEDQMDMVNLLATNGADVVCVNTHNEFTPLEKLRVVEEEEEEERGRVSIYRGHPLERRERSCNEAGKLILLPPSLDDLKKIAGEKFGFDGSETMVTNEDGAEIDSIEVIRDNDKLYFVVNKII

For assay [1], the target named is AKT2 fused to a Venus half for BiFC (AKT2:Ct-Venus; AKT2:Nt-Venus) (Arabidopsis thaliana) (UniProt Q38898). Description: split reporter; split-Venus BiFC in Xenopus oocytes, confocal imaging.
In assay [2] the target is full-length AKT2 channel fused to the synthetic PLV transcription factor and the C-terminal domain of ubiquitin (PLV:Cub:AKT2) (Arabidopsis thaliana) (UniProt Q38898). Put plainly: two-hybrid; split ubiquitin-based membrane yeast two-hybrid; PLV:Cub:AKT2 as bait, NubG fusion of MRH1 as prey; co-transformed yeast strain L40; X-Gal reporter on selective medium, 7 days at 30 °C.

Assay [3] concerns the target T1, MRH1 fused to a Venus half for BiFC (MRH1:Nt-Venus; MRH1:Ct-Venus) (Arabidopsis thaliana) (UniProt C0LGQ4).
T1 sequence: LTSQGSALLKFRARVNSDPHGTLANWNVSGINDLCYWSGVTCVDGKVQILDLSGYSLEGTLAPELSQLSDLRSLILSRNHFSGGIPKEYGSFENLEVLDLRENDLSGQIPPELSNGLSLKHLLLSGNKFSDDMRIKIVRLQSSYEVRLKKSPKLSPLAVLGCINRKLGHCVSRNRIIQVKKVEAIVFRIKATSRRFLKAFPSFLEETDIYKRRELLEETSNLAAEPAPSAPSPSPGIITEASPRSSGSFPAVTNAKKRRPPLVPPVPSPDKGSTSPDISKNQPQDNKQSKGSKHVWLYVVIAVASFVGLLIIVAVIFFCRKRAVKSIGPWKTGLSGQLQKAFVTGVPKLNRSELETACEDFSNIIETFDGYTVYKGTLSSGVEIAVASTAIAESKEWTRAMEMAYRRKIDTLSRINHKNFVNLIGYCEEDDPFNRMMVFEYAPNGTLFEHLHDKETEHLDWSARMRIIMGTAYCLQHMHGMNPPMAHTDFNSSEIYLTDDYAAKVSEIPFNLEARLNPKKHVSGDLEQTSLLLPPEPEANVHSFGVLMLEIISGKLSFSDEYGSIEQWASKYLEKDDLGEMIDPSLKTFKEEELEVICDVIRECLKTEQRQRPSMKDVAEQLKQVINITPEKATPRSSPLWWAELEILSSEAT
Description: split reporter; split-Venus BiFC in Xenopus oocytes, confocal imaging.

Assay [4] has as its target AKT2 fused to a Venus half for BiFC (AKT2:Ct-Venus; AKT2:Nt-Venus) (Arabidopsis thaliana) (UniProt Q38898). The description is as above. The source holds these as a separate data set.
In assay [5] the target is AKT2-eGFP fusion protein (Arabidopsis thaliana) (UniProt Q38898). Description: FRET or BRET; acceptor photobleaching FRET in Arabidopsis protoplasts; AKT2:eGFP donor, mRFP fusion acceptor.
Assay [6] concerns the target T1, MRH1 fused to a Venus half for BiFC (MRH1:Nt-Venus; MRH1:Ct-Venus) (Arabidopsis thaliana). Description: split reporter; BiFC, data not shown.

Where two headings read alike, the source gives them in different places. Results are given in words; binding and its absence hold for the method and conditions named. For part of these data: Binding seen in cells or lysates may run through a third protein. Some binding calls cover weakened binding; strength is not graded here. For part of these data: Tags and fused reporters may be left off the sequences shown.

Consider “AKT2 fused to a Venus half for BiFC (AKT2:Ct-Venus; AKT2:Nt-Venus) (from UniProt Q38898 1-802)”, for which, in assay [1], the binding result is reported as “binds”.

B1: full-length MRH1 kinase fused to the modified N-terminal domain of ubiquitin (NubG:MRH1) (protein, UniProt C0LGQ4 26-678)
chain: LTSQGSALLKFRARVNSDPHGTLANWNVSGINDLCYWSGVTCVDGKVQILDLSGYSLEGTLAPELSQLSDLRSLILSRNHFSGGIPKEYGSFENLEVLDLRENDLSGQIPPELSNGLSLKHLLLSGNKFSDDMRIKIVRLQSSYEVRLKKSPKLSPLAVLGCINRKLGHCVSRNRIIQVKKVEAIVFRIKATSRRFLKAFPSFLEETDIYKRRELLEETSNLAAEPAPSAPSPSPGIITEASPRSSGSFPAVTNAKKRRPPLVPPVPSPDKGSTSPDISKNQPQDNKQSKGSKHVWLYVVIAVASFVGLLIIVAVIFFCRKRAVKSIGPWKTGLSGQLQKAFVTGVPKLNRSELETACEDFSNIIETFDGYTVYKGTLSSGVEIAVASTAIAESKEWTRAMEMAYRRKIDTLSRINHKNFVNLIGYCEEDDPFNRMMVFEYAPNGTLFEHLHDKETEHLDWSARMRIIMGTAYCLQHMHGMNPPMAHTDFNSSEIYLTDDYAAKVSEIPFNLEARLNPKKHVSGDLEQTSLLLPPEPEANVHSFGVLMLEIISGKLSFSDEYGSIEQWASKYLEKDDLGEMIDPSLKTFKEEELEVICDVIRECLKTEQRQRPSMKDVAEQLKQVINITPEKATPRSSPLWWAELEILSSEAT
On to B1, for which the binding result in assay [2] was “binds”.

B2: MRH1 fused to a Venus half for BiFC (MRH1:Nt-Venus; MRH1:Ct-Venus) (protein, UniProt C0LGQ4 26-678)
chain: LTSQGSALLKFRARVNSDPHGTLANWNVSGINDLCYWSGVTCVDGKVQILDLSGYSLEGTLAPELSQLSDLRSLILSRNHFSGGIPKEYGSFENLEVLDLRENDLSGQIPPELSNGLSLKHLLLSGNKFSDDMRIKIVRLQSSYEVRLKKSPKLSPLAVLGCINRKLGHCVSRNRIIQVKKVEAIVFRIKATSRRFLKAFPSFLEETDIYKRRELLEETSNLAAEPAPSAPSPSPGIITEASPRSSGSFPAVTNAKKRRPPLVPPVPSPDKGSTSPDISKNQPQDNKQSKGSKHVWLYVVIAVASFVGLLIIVAVIFFCRKRAVKSIGPWKTGLSGQLQKAFVTGVPKLNRSELETACEDFSNIIETFDGYTVYKGTLSSGVEIAVASTAIAESKEWTRAMEMAYRRKIDTLSRINHKNFVNLIGYCEEDDPFNRMMVFEYAPNGTLFEHLHDKETEHLDWSARMRIIMGTAYCLQHMHGMNPPMAHTDFNSSEIYLTDDYAAKVSEIPFNLEARLNPKKHVSGDLEQTSLLLPPEPEANVHSFGVLMLEIISGKLSFSDEYGSIEQWASKYLEKDDLGEMIDPSLKTFKEEELEVICDVIRECLKTEQRQRPSMKDVAEQLKQVINITPEKATPRSSPLWWAELEILSSEAT
Take B2: the binding entry in assay [3] and in assay [4] was “binds” throughout.

B3: MRH1-mRFP fusion protein (protein, UniProt C0LGQ4 26-678)
chain: LTSQGSALLKFRARVNSDPHGTLANWNVSGINDLCYWSGVTCVDGKVQILDLSGYSLEGTLAPELSQLSDLRSLILSRNHFSGGIPKEYGSFENLEVLDLRENDLSGQIPPELSNGLSLKHLLLSGNKFSDDMRIKIVRLQSSYEVRLKKSPKLSPLAVLGCINRKLGHCVSRNRIIQVKKVEAIVFRIKATSRRFLKAFPSFLEETDIYKRRELLEETSNLAAEPAPSAPSPSPGIITEASPRSSGSFPAVTNAKKRRPPLVPPVPSPDKGSTSPDISKNQPQDNKQSKGSKHVWLYVVIAVASFVGLLIIVAVIFFCRKRAVKSIGPWKTGLSGQLQKAFVTGVPKLNRSELETACEDFSNIIETFDGYTVYKGTLSSGVEIAVASTAIAESKEWTRAMEMAYRRKIDTLSRINHKNFVNLIGYCEEDDPFNRMMVFEYAPNGTLFEHLHDKETEHLDWSARMRIIMGTAYCLQHMHGMNPPMAHTDFNSSEIYLTDDYAAKVSEIPFNLEARLNPKKHVSGDLEQTSLLLPPEPEANVHSFGVLMLEIISGKLSFSDEYGSIEQWASKYLEKDDLGEMIDPSLKTFKEEELEVICDVIRECLKTEQRQRPSMKDVAEQLKQVINITPEKATPRSSPLWWAELEILSSEAT
Consider B3, for which, in assay [5], the binding entry is recorded as “binds”.

B4: MRH2/MDIS1 (protein, UniProt C0LGU7 30-695)
chain: LESEGFVLLKFRARVDSDPHGTLANWNVSDHDHFCSWFGVTCVDNKVQMLNLSGCSLGGTLAPELSQLSELRSLILSKNKLSGDIPNEFASFAKLEFLDLRDNNLNGVVPPELNKVLTPENLLLSGNKFAGFMTVKFLRLQSLYKVQMNKNRELSSVSADVLDCVNRKLGYCVSRRSLITRNKAKAFVLRIRATSRHYMVRRESHGKNYVVNYHPSENETSIFKRRELLEETSNLAAMPAPDTPSPSPEIITIVFPRSSGSFPALTNAKKRIPPLIPPSSPPPLPTNNTIASDPPRKFEEKSKGFKDVWLYVVIGVAAFVAMLIIVAVIFFFRKRAVKSIGPWKTGLSGQLQKAFVTGVPKLNRSELETACEDFSNIIEAFDGYTVYKGTLSSGVEIAVASTAILETREWTRAMEMTYRRRIDTMSRVNHKNFINLIGYCEEDEPFNRMMVFEYAPNGTLFEHLHDKEMEHLDWNARTRIIMGTAYCLQYMHELNPPISHTKLVSSAIYLTDDYAAKVGEVPFSGQTGSKPRKPMSGDLDQSLLPLPPEPETNVYSFGVLMLEIISGKLSDSEEEGSILKWASKYLENDNLRDMIDPTLTTYKEEELEAICDVARHCLKLDESQRPKMKYVVQQLKEVINISQEQATPRLSPLWWAELEILSSEAT
Consider B4, for which the binding result in assay [6] is recorded as “binds”.
